# Experimental data taken from the supplement of paper PMC4604168 (melanoma cell lines).
# The list shows a part of the results. Repeats are few or missing, and single values can be far off.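 Cells were imaged in 1,536-well plates, and nuclei stained with an antibody against cleaved PARP were counted against all DNA-stained nuclei to give the apoptosis fraction. Screening doses were chosen to leave most cells alive, and resting and induced cleaved-PARP levels differ strongly between cell lines.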
# What was measured:
# Assay in all cases: cleaved PARP positive nuclei fraction relative to DMSO control; melanoma cells; higher = more apoptosis
# Details in all cases: library dose: low library concentration; 72 h
# 501Mel = tested on: 501Mel
# A101D = tested on: A101D
# A2058 = tested on: A2058
# A375 = tested on: A375
# C32 = tested on: C32
# CBRC008 = tested on: CBRC008 (line from a melanoma biopsy)
# CBRC014 = tested on: CBRC014 (line from a melanoma biopsy)
# CBRC016 = tested on: CBRC016 (line from a melanoma biopsy)
# CBRC017 = tested on: CBRC017 (line from a melanoma biopsy)
# CBRC034 = tested on: CBRC034 (line from a melanoma biopsy)
# COLO792 = tested on: COLO792
# COLO800 = tested on: COLO800
# COLO829 = tested on: COLO829
# G361 = tested on: G361
# IPC-298 = tested on: IPC-298
# IST-MEL1 = tested on: IST-MEL1
# LB2518-MEL = tested on: LB2518-MEL
# LOXIMVI = tested on: LOXIMVI
# MEL-HO = tested on: MEL-HO
Compound,cleaved PARP positive nuclei fraction (501Mel),cleaved PARP positive nuclei fraction (A101D),cleaved PARP positive nuclei fraction (A2058),cleaved PARP positive nuclei fraction (A375),cleaved PARP positive nuclei fraction (C32),cleaved PARP positive nuclei fraction (CBRC008),cleaved PARP positive nuclei fraction (CBRC014),cleaved PARP positive nuclei fraction (CBRC016),cleaved PARP positive nuclei fraction (CBRC017),cleaved PARP positive nuclei fraction (CBRC034),cleaved PARP positive nuclei fraction (COLO792),cleaved PARP positive nuclei fraction (COLO800),cleaved PARP positive nuclei fraction (COLO829),cleaved PARP positive nuclei fraction (G361),cleaved PARP positive nuclei fraction (IPC-298),cleaved PARP positive nuclei fraction (IST-MEL1),cleaved PARP positive nuclei fraction (LB2518-MEL),cleaved PARP positive nuclei fraction (LOXIMVI),cleaved PARP positive nuclei fraction (MEL-HO)
"O=C(O)[C@@H]1[O][Sb](=[O])([O][Sb]2(=[O])[O][C@H]([C@H](O)CO)[C@H](O)[C@H](C(=O)O)[O]2)[O][C@H]([C@H](O)CO)[C@@H]1O (some centres undefined) [stibogluconate] + C#Cc1cccc(Nc2ncnc3cc(OCCOC)c(OCCOC)cc23)c1 [erlotinib] (first compound 2 µM, partner dose 0.8 µM)",64.1%,82.4%,67.7%,79.9%,65%,76.6%,95.6%,79.4%,101%,105%,82.2%,59.4%,139%,86.2%,164%,122%,65.3%,84.6%,55.5%
"Nc1nc(F)nc2c1ncn2[C@@H]1O[C@H](CO)[C@@H](O)[C@@H]1O [fludarabine] + C[C@]1(c2nc3c(C(N)=O)cccc3[nH]2)CCCN1 [Veliparib] (first compound 0.2 µM, partner dose 1.4 µM)",3200%,47.3%,122%,3710%,78.9%,71.3%,93%,28.8%,80.8%,49.7%,143%,57%,102%,94.5%,90.4%,62.9%,94.2%,52.5%,13.6%
"CC(C)C[C@H](NC(=O)[C@H](Cc1ccccc1)NC(=O)c1cnccn1)B(O)O [Bortezomib] + Nc1nc(F)nc2c1ncn2[C@@H]1O[C@H](CO)[C@@H](O)[C@@H]1O [fludarabine] (first compound 0.001 µM, partner dose 0.2 µM)",8600%,251%,41.9%,1620%,108%,629%,160%,303%,425%,116%,118%,59.4%,209%,2460%,52.2%,168%,760%,48.9%,139%
"Nc1ncn([C@H]2C[C@H](O)[C@@H](CO)O2)c(=O)n1 [decitabine] + COCC[n+]1c2c(n(Cc3cnccn3)c1C)C(=O)c1ccccc1C2=O [YM155] (first compound 0.1 µM, partner dose 0.0004 µM)",56.4%,240%,261%,209%,75.3%,262%,99.9%,131%,123%,83.2%,170%,142%,181%,151%,139%,45.5%,133%,77%,147%
"CC(C)C[C@H](NC(=O)[C@H](Cc1ccccc1)NC(=O)c1cnccn1)B(O)O [Bortezomib] + COCC[n+]1c2c(n(Cc3cnccn3)c1C)C(=O)c1ccccc1C2=O [YM155] (first compound 0.001 µM, partner dose 0.0004 µM)",170%,191%,89.4%,247%,248%,1460%,221%,219%,200%,67.2%,97.4%,129%,82.1%,1770%,99.2%,116%,720%,87%,130%
"Nc1nc(F)nc2c1ncn2[C@@H]1O[C@H](CO)[C@@H](O)[C@@H]1O [fludarabine] + C#Cc1cccc(Nc2ncnc3cc(OCCOC)c(OCCOC)cc23)c1 [erlotinib] (first compound 0.2 µM, partner dose 0.8 µM)",15300%,100%,173%,3040%,150%,105%,104%,385%,109%,84.6%,188%,84%,136%,76.4%,221%,155%,105%,45.9%,272%
"CC(C)C[C@H](NC(=O)[C@H](Cc1ccccc1)NC(=O)c1cnccn1)B(O)O [Bortezomib] + CNC(=O)c1cc(Oc2ccc(NC(=O)Nc3ccc(Cl)c(C(F)(F)F)c3)cc2)ccn1 [sorafenib] (first compound 0.001 µM, partner dose 0.4 µM)",449%,1510%,153%,80.5%,76.7%,488%,182%,2230%,320%,239%,76.8%,98.2%,341%,4630%,140%,78.7%,370%,77.9%,209%
"CO[C@H]1C[C@@H]2CC[C@@H](C)[C@@](O)(O2)C(=O)C(=O)N2CCCC[C@H]2C(=O)O[C@H]([C@H](C)C[C@@H]2CC[C@@H](OCCO)[C@H](OC)C2)CC(=O)[C@H](C)/C=C(\C)[C@@H](O)[C@@H](OC)C(=O)[C@H](C)C[C@H](C)/C=C/C=C/C=C/1C [everolimus] + Nc1cccc2c1CN(C1CCC(=O)NC1=O)C2=O [lenalidomide] (first compound 0.02 µM, partner dose 1 µM)",991%,223%,122%,607%,98.6%,162%,98.7%,143%,110%,126%,144%,66.6%,59.7%,184%,119%,37.3%,164%,58.1%,83.1%
"Nc1ccn([C@@H]2O[C@H](CO)[C@@H](O)C2(F)F)c(=O)n1 [gemcitabine] + Nc1ncn([C@H]2C[C@H](O)[C@@H](CO)O2)c(=O)n1 [decitabine] (first compound 0.0004 µM, partner dose 0.1 µM)",56.9%,171%,108%,137%,38.4%,134%,136%,242%,144%,130%,87.5%,159%,275%,79.6%,43.7%,408%,113%,93%,41.1%
"C=C(c1ccc(C(=O)O)cc1)c1cc2c(cc1C)C(C)(C)CCC2(C)C [Bexarotene] + COCC[n+]1c2c(n(Cc3cnccn3)c1C)C(=O)c1ccccc1C2=O [YM155] (first compound 2 µM, partner dose 0.0004 µM)",308%,45.1%,107%,23.4%,28.6%,321%,120%,76.9%,92.8%,24.4%,83.2%,102%,84.8%,158%,79.4%,34.2%,101%,128%,63.4%
"CC(C)C[C@H](NC(=O)[C@H](Cc1ccccc1)NC(=O)c1cnccn1)B(O)O [Bortezomib] + Cn1c(Nc2ccc(C(F)(F)F)cc2)nc2cc(Oc3ccnc(-c4ncc(C(F)(F)F)[nH]4)c3)ccc21 [CHIR265] (first compound 0.001 µM, partner dose 0.08 µM)",225%,508%,230%,437%,267%,1080%,505%,1330%,2480%,641%,93.9%,116%,180%,8210%,107%,82.7%,332%,101%,44.4%
"C[C@@H](Oc1cc(-c2cnn(C3CCNCC3)c2)cnc1N)c1c(Cl)ccc(F)c1Cl [Crizotinib] + Cn1nnc2c(C(N)=O)ncn2c1=O [temozolomide] (first compound 0.2 µM, partner dose 2 µM)",84%,96%,140%,136%,71.6%,111%,95%,123%,122%,55.8%,224%,136%,70.7%,164%,217%,85.2%,129%,248%,187%
"Nc1ccn([C@@H]2O[C@H](CO)[C@@H](O)C2(F)F)c(=O)n1 [gemcitabine] + C=CCNC1=C2C[C@@H](C)C[C@H](OC)[C@H](O)[C@@H](C)/C=C(\C)[C@H](OC(N)=O)[C@@H](OC)/C=C\C=C(/C)C(=O)NC(=CC1=O)C2=O [Tanespimycin] (first compound 0.0004 µM, partner dose 0.002 µM)",74.2%,105%,126%,56.3%,89.1%,190%,302%,216%,137%,90.5%,123%,102%,121%,58.3%,55.5%,180%,117%,419%,127%
"CS(=O)(=O)CCNCc1ccc(-c2ccc3ncnc(Nc4ccc(OCc5cccc(F)c5)c(Cl)c4)c3c2)o1 [lapatinib] + COCC[n+]1c2c(n(Cc3cnccn3)c1C)C(=O)c1ccccc1C2=O [YM155] (first compound 0.8 µM, partner dose 0.0004 µM)",57.9%,109%,177%,429%,131%,516%,98.1%,263%,97.2%,102%,146%,183%,155%,150%,69%,76.9%,87%,123%,80.7%
"O=C(O)[C@@H]1[O][Sb](=[O])([O][Sb]2(=[O])[O][C@H]([C@H](O)CO)[C@H](O)[C@H](C(=O)O)[O]2)[O][C@H]([C@H](O)CO)[C@@H]1O (some centres undefined) [stibogluconate] + COc1ccc(Cl)c(Nc2nc3ccccc3nc2NS(=O)(=O)c2cccc(NC(=O)C(C)(C)N)c2)c1 [XL147] (first compound 2 µM, partner dose 0.8 µM)",84.6%,167%,178%,269%,87.9%,332%,104%,455%,138%,191%,129%,79%,84.9%,142%,123%,105%,115%,116%,140%
"Cn1c(=O)n(-c2ccc(C(C)(C)C#N)cc2)c2c3cc(-c4cnc5ccccc5c4)ccc3ncc21 + C=C(c1ccc(C(=O)O)cc1)c1cc2c(cc1C)C(C)(C)CCC2(C)C [Bexarotene] (first compound 0.004 µM, partner dose 2 µM)",108%,53.1%,41.3%,65.5%,74%,84.4%,90.9%,54.2%,102%,53.9%,112%,36.3%,166%,154%,133%,64.9%,84.9%,154%,156%

# 2 successive entries already listed, quoted:
Compound,cleaved PARP positive nuclei fraction (501Mel),cleaved PARP positive nuclei fraction (A101D),cleaved PARP positive nuclei fraction (A2058),cleaved PARP positive nuclei fraction (A375),cleaved PARP positive nuclei fraction (C32),cleaved PARP positive nuclei fraction (CBRC008),cleaved PARP positive nuclei fraction (CBRC014),cleaved PARP positive nuclei fraction (CBRC016),cleaved PARP positive nuclei fraction (CBRC017),cleaved PARP positive nuclei fraction (CBRC034),cleaved PARP positive nuclei fraction (COLO792),cleaved PARP positive nuclei fraction (COLO800),cleaved PARP positive nuclei fraction (COLO829),cleaved PARP positive nuclei fraction (G361),cleaved PARP positive nuclei fraction (IPC-298),cleaved PARP positive nuclei fraction (IST-MEL1),cleaved PARP positive nuclei fraction (LB2518-MEL),cleaved PARP positive nuclei fraction (LOXIMVI),cleaved PARP positive nuclei fraction (MEL-HO)
"C=C(c1ccc(C(=O)O)cc1)c1cc2c(cc1C)C(C)(C)CCC2(C)C [Bexarotene] + COCC[n+]1c2c(n(Cc3cnccn3)c1C)C(=O)c1ccccc1C2=O [YM155] (first compound 2 µM, partner dose 0.0004 µM)",308%,45.1%,107%,23.4%,28.6%,321%,120%,76.9%,92.8%,24.4%,83.2%,102%,84.8%,158%,79.4%,34.2%,101%,128%,63.4%
"CC(C)C[C@H](NC(=O)[C@H](Cc1ccccc1)NC(=O)c1cnccn1)B(O)O [Bortezomib] + Cn1c(Nc2ccc(C(F)(F)F)cc2)nc2cc(Oc3ccnc(-c4ncc(C(F)(F)F)[nH]4)c3)ccc21 [CHIR265] (first compound 0.001 µM, partner dose 0.08 µM)",225%,508%,230%,437%,267%,1080%,505%,1330%,2480%,641%,93.9%,116%,180%,8210%,107%,82.7%,332%,101%,44.4%
